Experimental data taken from PubChem BioAssay AID504467 (National Center for Advancing Translational Sciences (NCATS), 2011).
Hit rate of the full screen: of about 330,000 compounds, about 7,700 (2.3%) were called active. Inconclusive means that the source gave no clear call. Such entries were picked first, then a sample of the others. Calls follow the shape of the dose curve; as a rule, active = well fitted inhibition curve with a large enough effect; inconclusive = small, poorly fitted or top-dose-only effect, or effect the other way; inactive = flat fitted curve, though single readings scatter. Potencies beside an inconclusive call are fits to weak or partial responses and may not hold up.

Test: qHTS screen for small molecules that inhibit ELG1-dependent DNA repair in human embryonic kidney (HEK293T) cells expressing luciferase-tagged ELG1; also: nearly all actives have a fitted effect of over 55% in size
Conditions: HEK293T ELG1-luciferase reporter, luminescence, 16 h, DNA damage induced by 5-fluorouridine; activity change, negative = inhibition: at 46.1 µM (top of the series)
Summary of the method: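 DMSO vehicle served as the neutral condition. Each well held 2,000 cells given 5-fluorouridine plus compound; after 16 hr at 37 °C/5% CO2, ONE-Glo was added and luciferase measured 30 min later.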
% is scaled to controls: 0 for no effect and ±100 for the full control effect; potency is read from the fitted curve at half-maximal effect.

| SMILES | Potency | activity change, negative = inhibition |
| --- | --- | --- |
| O=[N+]([O-])c1ccc(CNCc2cc(Cl)ccc2O)cc1 | inconclusive: 14.1 µM [activator, single point] |  |
| CSc1ccccc1NC(=O)CN(C)C(=O)c1ccc(NC(=O)c2cccs2)cc1 | active: 20.6 µM |  |
| Cc1cccc(C)c1NC(=S)N/N=C/c1c(Cl)cccc1Cl |  | inactive: 6.19% |
| Nc1ccc2nc(CCc3ccccc3)[nH]c2c1 | inconclusive: 20.6 µM [activator, partial curve] |  |
| CC(C)C(NC(=O)c1c(F)cccc1F)C(=O)NC1CC(C)(C)NC(C)(C)C1 (configuration not stated) |  | inactive: 1.48% |
| COc1ccc(NC(=S)Nc2cccc(Cl)c2Cl)cc1OC |  | inactive: 3.16% |
| Cc1ccc(N(CC(O)CN2CCCCC2)S(=O)(=O)c2ccccc2)cc1 (configuration not stated) |  | inactive: 10.6% |
| Cc1ccc(Cl)cc1NC(=S)N/N=C/c1cccc2ccccc12 | inconclusive: 2.06 µM [inhibitor, full curve] |  |
| COc1cccc(/C=N/NC(=O)c2cc3cc([N+](=O)[O-])ccc3s2)c1O | inconclusive: 3.26 µM [inhibitor, full curve] |  |
| O=C1C(=C(O)c2ccccc2)C(=O)c2ccccc21 | inconclusive: 35.5 µM [inhibitor, single point] |  |
| O=C(N[C@H]1C/C=C\C[C@@H](CC(=O)N(CCO)Cc2ccccc2)C(=O)N[C@H](Cc2c[nH]c3ccccc23)COC1=O)OCC1c2ccccc2-c2ccccc21 | active: 20.6 µM |  |
| O=C1C(c2ccnc3ccccc23)=C(O)c2ccccc21 | inconclusive: 0.231 µM [activator, partial curve] |  |
| CC(=O)Nc1ccc(OCCCNC(=O)c2c(-c3ccccc3)noc2C)cc1 | inconclusive: 20.6 µM [inhibitor, partial curve] |  |
| O=C(N/N=C/C(Cl)=C\c1ccccc1)c1cnccn1 | inconclusive: 20.6 µM [activator, partial curve] |  |
| COC(=O)c1ccc(C23CC4(C2)[C@H](CN(Cc2cccnc2)[C@@H]4c2ccccc2)C3c2ccc(Cl)nc2)cc1 (some centres not stated) | inconclusive: 13 µM [inhibitor, partial curve, poor fit] |  |
| CCN(C(=O)Cn1c(=O)oc2cc(S(=O)(=O)N3CCCC3)ccc21)c1ccc(OC)cc1 | inconclusive: 23.1 µM [inhibitor, single point] |  |
| Cc1ccc2[nH]c(SCC(=O)N3CCOCC3)nc2c1C | inconclusive: 10.3 µM [activator, partial curve] |  |
| COCCN1CC(C(=O)N2CCC(Oc3ccccc3OC)CC2)CCC1=O (configuration not stated) |  | inactive: 4.22% |
| CCOc1ncccc1C(=O)OCC(=O)NC1CCCCCC1 |  | inactive: 1.79% |
| CC(C)c1ccc(S(=O)(=O)N2CCN(C(=O)c3ccc(N4CCCC4)c([N+](=O)[O-])c3)CC2)cc1 | inconclusive: 16.4 µM [inhibitor, partial curve] |  |
| Cc1ccc(S(=O)(=O)N2C[C@@H]3CCCC[C@@H]3[C@@H](C)[C@H]2c2cn(Cc3ccccc3)c3ccccc23)cc1 | inconclusive: 6.51 µM [inhibitor, single point] |  |

| SMILES | Potency | activity change, negative = inhibition |
| --- | --- | --- |
| O=C(Nc1ccc(S(=O)(=O)Nc2ncccn2)cc1)c1cc([N+](=O)[O-])ccc1Cl | inconclusive: 13 µM [activator, partial curve, poor fit] |  |
| CCCCOc1ccc(OCCCC)c2c1NC1(N2)C(=O)N(C(C)=O)c2ccccc21 | inconclusive: 0.259 µM [activator, full curve, poor fit] |  |
| CCOc1ccc2[nH]c(=O)c(CN(Cc3cccs3)C(CC)c3nnnn3C(C)(C)CC)cc2c1 (configuration not stated) | inconclusive: 29.1 µM [inhibitor, single point] |  |
| O=S(=O)(Nc1nc2ccccc2nc1N1CCN(c2ccccc2)CC1)c1ccc(F)cc1 |  | inactive: -9.79% |
| CCOc1ccc(NC(=O)c2ccc(F)c(S(=O)(=O)N3CCN(c4ccccn4)CC3)c2)cc1 | active: 9.2 µM |  |
| CCOc1ccccc1OCCCC(=O)NNC(=O)c1cc(C)oc1C |  | inactive: 0.348% |
| Cn1cnnc1SCC(=O)Nc1ccc(N2CCCCC2)cc1 | inconclusive: 28.2 µM [activator, single point] |  |
| O=C(O)C1NCCc2ccccc21 (configuration not stated) |  | inactive: -3.56% |
| O=C(C1CCC(CNc2nc(=S)[nH]c3ccccc23)CC1)N1CCN(c2ccccn2)CC1 (configuration not stated) | inconclusive: 2.06 µM [inhibitor, full curve] |  |
| COc1cccc(CNS(=O)(=O)c2cc3c4c(c2)CCC(=O)N4CCC3)c1 | inconclusive: 3.26 µM [inhibitor, partial curve] |  |
| COc1cc(C(=O)NCC(c2ccco2)N2CCc3ccccc3C2)cc(OC)c1OC (configuration not stated) |  | inactive: -23% |
| COCCCC1CCN(C(=O)C2CCC(=O)N(CC3CCCCC3)C2)CC1 (configuration not stated) | inconclusive: 29.1 µM [activator, partial curve, poor fit] |  |
| COc1ccc(/C=N/NC(=O)c2ccc[nH]2)cc1 | inconclusive: 16.4 µM [activator, partial curve] |  |
| O=C(O)c1cc(S(=O)(=O)N(Cc2ccccc2)c2ccc(Cl)cc2)ccc1Cl | inconclusive: 29.1 µM [inhibitor, partial curve, poor fit] |  |
| CCOC(=O)c1ccc2c(c1)nc(COc1ccc(OC)cc1)n2CC | inconclusive: 20.6 µM [inhibitor, single point] |  |
| Cc1nc(NCCN2CCOCC2)c2nnn(Cc3ccccc3Cl)c2n1 | inconclusive: 18.4 µM [inhibitor, single point] |  |
| O=[N+]([O-])c1cccc(-c2ccc(/C=N/Nc3nc(N4CCCCC4)nc(N4CCCCC4)n3)o2)c1 | inconclusive: 20.6 µM [inhibitor, single point] |  |
| CCc1ccc(OCC(=O)OCC(=O)NC2CCCC(C)C2C)cc1 (configuration not stated) | inconclusive: 14.6 µM [activator, partial curve, poor fit] |  |
| CSCCC(NC(=O)C1CCC(C)CC1)C(=O)NCCN1CCOCC1 (configuration not stated) | inconclusive: 32.6 µM [activator, partial curve, poor fit] |  |
| COc1cccc(/C=C/C(=C2/C(=O)N(c3ccccc3)N=C2C)c2ccccc2)c1OC | active: 7.31 µM |  |
| CCOc1ccc2nc(N/C(N)=N/S(C)(=O)=O)nc(C)c2c1 | inconclusive: 20.6 µM [activator, partial curve] |  |

Single values from the results shown:
Entry for CCOC(=O)c1ccc2c(c1)nc(COc1ccc(OC)cc1)n2CC under Potency: inconclusive: 20.6 µM [inhibitor, single point]
Entry for O=C1C(c2ccnc3ccccc23)=C(O)c2ccccc21 under Potency: inconclusive: 0.231 µM [activator, partial curve]
Entry for Cc1ccc(N(CC(O)CN2CCCCC2)S(=O)(=O)c2ccccc2)cc1 (configuration not stated) under activity change, negative = inhibition: inactive: 10.6%
